# From PubChem BioAssay AID588590 (National Center for Advancing Translational Sciences (NCATS), 2011)
# The chains behind the UniProt entries cited, without tags or fusion partners. Where a name states a change or a piece, a line headed by the entry shows the natural chain unless it says otherwise.
# UniProt Q9UNA4: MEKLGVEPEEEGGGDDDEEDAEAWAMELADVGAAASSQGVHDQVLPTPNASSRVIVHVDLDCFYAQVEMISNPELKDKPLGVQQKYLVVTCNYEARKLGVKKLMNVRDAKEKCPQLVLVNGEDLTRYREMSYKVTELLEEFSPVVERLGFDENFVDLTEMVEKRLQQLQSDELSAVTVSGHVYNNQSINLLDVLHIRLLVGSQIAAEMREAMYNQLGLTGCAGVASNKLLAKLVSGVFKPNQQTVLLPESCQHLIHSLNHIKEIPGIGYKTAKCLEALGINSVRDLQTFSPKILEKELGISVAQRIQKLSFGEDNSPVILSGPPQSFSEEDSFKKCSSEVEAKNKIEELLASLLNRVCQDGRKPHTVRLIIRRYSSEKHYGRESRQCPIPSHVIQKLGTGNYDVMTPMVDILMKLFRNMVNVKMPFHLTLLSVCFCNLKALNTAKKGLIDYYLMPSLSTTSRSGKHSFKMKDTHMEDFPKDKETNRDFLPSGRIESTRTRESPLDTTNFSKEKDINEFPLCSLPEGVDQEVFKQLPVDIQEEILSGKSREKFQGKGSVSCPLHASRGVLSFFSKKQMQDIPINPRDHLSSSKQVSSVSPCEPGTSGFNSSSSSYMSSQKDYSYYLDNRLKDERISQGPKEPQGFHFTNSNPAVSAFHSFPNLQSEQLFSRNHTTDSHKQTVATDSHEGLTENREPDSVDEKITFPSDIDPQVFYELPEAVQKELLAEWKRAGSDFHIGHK
# About 4,000 (1%) of roughly 390,000 compounds were called active. The inconclusive results got no clear call from the source; some entries with a clear call stand among them for comparison. Calls follow the shape of the dose curve; as a rule, active = well fitted inhibition curve with a large enough effect; inconclusive = small, poorly fitted or top-dose-only effect, or another doubt; inactive = no such curve, though single readings can be large or run the other way. Potencies of inconclusive entries are doubtful fits and often do not repeat.
# Target: DNA polymerase iota (Homo sapiens) (UniProt Q9UNA4)
# Assay: qHTS for Inhibitors of Polymerase Iota
# Conditions: Pol iota fluorescent replication assay, 10 min; series mostly up to 115 µM; activity, negative = inhibition: at the top concentration
# Summary of the method: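 Fluorescent replication assay read twice, at 0 min and 10 min after adding 50 nM (final) substrate. Enzyme (10 nM) and compounds were first incubated 15 min at room temperature; enzyme-free buffer wells were negative controls.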
# Potency is read from the fitted curve at half-maximal effect.
SMILES,"activity, negative = inhibition",Potency
CNc1c(Br)cc(/C=C2\C=C(C(O)c3cc(Br)c(NC)c(Br)c3)c3ccccc32)cc1Br (stereo not given),inactive: 34.9%,
CCOC(=O)c1ccc(N2C(=O)Cc3cc(OCC)c(OCC)cc3C2c2ccccc2)cc1 (stereo not given),inactive: -0.846%,
CCOc1ccc(NS(=O)(=O)c2ccc3[nH]cc(C(=O)N4CCCCCC4)c(=O)c3c2)cc1,,"inconclusive: 89.1 µM [inhibitor, single point]"
Cc1ccc2cc3c(NC(=O)c4cccnc4)nn(C)c3nc2c1,,"inconclusive: 39.8 µM [inhibitor, partial curve, poor fit]"
CCc1cccc(NC(=O)c2oc3ccc4c(c3c2C)C(=O)CC(C)(C)O4)c1,inactive: 23.4%,
COc1ccccc1-c1oc2ccccc2c1C#CCO,,"inconclusive: 8.91 µM [inhibitor, full curve]"
NC(=O)c1c(NC(=O)c2cccs2)sc2c1CCCCCC2,,"inconclusive: 44.7 µM [inhibitor, partial curve]"
CCN(CC)C(=O)Oc1ccc2c(c1)O/C(=C\c1ccco1)C2=O,,"inconclusive: 70.8 µM [inhibitor, partial curve]"
N#Cc1nccnc1S(=O)(=O)c1cccs1,inactive: 148%,
Cc1c(CC(=O)O)c(=O)oc2cc(OCc3nn[nH]n3)ccc12,,"inconclusive: 22.4 µM [inhibitor, partial curve, poor fit]"
CCCCOc1cccc(C2C(C(=O)c3ccc(C)o3)=C(O)C(=O)N2c2nnc(C)s2)c1 (stereo not given),inactive: -8.68%,
O=C(NC1CCCCC1)N(Cc1ccc(F)cc1)Cc1nc2ccccc2c(=O)[nH]1,,"inconclusive: 1.78 µM [inhibitor, partial curve, poor fit]"
CC(C)(C)NC(=S)NNC(=O)c1ccncc1,inactive: 79.6%,
COc1cc2c(NC3CCN(C)CC3)nc(N3CCCN(C)CC3)nc2cc1OCc1ccccc1,inactive: -1.24%,
CCc1nc2sc3c(=O)[nH]cnc3c2c2c1CSC(C)(C)C2,,"inconclusive: 10 µM [inhibitor, partial curve, poor fit]"
Cc1ccccc1Nc1c(-c2ccc(Cl)s2)nc2ccccn12,inactive: -2.24%,
Cc1ccc(OCC(=O)Nc2ccc3oc(=O)ccc3c2)cc1C,,"inconclusive: 25.1 µM [inhibitor, partial curve, poor fit]"
CCn1nc(C)c(Br)c1-c1nc(CS(=O)(=O)c2ccsc2)no1,,"inconclusive: 79.4 µM [inhibitor, single point]"
O=C(/C=C/c1ccc(Br)cc1)c1ccc(NC2=NCCCS2)cc1,,"inconclusive: 25.1 µM [inhibitor, full curve, poor fit]"
COc1ccc(-n2ccn(Cc3ccccc3C)c(=O)c2=O)cc1,inactive: 28.7%,

# Shown with tabs: part of the list above
SMILES	activity, negative = inhibition	Potency
Cc1ccc(OCC(=O)Nc2ccc3oc(=O)ccc3c2)cc1C		inconclusive: 25.1 µM [inhibitor, partial curve, poor fit]
CCn1nc(C)c(Br)c1-c1nc(CS(=O)(=O)c2ccsc2)no1		inconclusive: 79.4 µM [inhibitor, single point]
